Results published in article PMC6494879, “Drug resistance emergence in macaques administered cabotegravir long-acting for pre-exposure prophylaxis during acute SHIV infection” (Nature Communications, 2019).
Where two headings read alike, the source gives them in different places. The source gives many values for each of these; only a part stands here.

Settings: for Median CAB: plasma, median of treated macaques

For `C[C@H]1CO[C@@H]2Cn3cc(C(=O)NCc4ccc(F)cc4F)c(=O)c(O)c3C(=O)N12` [CAB, cabotegravir], the “Plasma CAB concentration” value (macaque 01D520, day 4) was 0.009 µg/mL, the “Plasma CAB concentration” value (macaque 01D520, day 11) was 0.009 µg/mL and the “Plasma CAB concentration” value (macaque 01D520, day 115) was 0.125 µg/mL. For the same compound, the “Plasma CAB concentration” value (macaque 01D520, day 120) was 0.049 µg/mL, the “Plasma CAB concentration” value (macaque 01D520, day 127) was 0.009 µg/mL and the “Plasma CAB concentration” value (macaque 01D520, day 134) was 0.009 µg/mL. The “Plasma CAB concentration” value (macaque 01D520, day 143) was 0.009 µg/mL, the “Plasma CAB concentration” value (macaque 01D520, day 148) was 0.009 µg/mL and the “Plasma CAB concentration” value (macaque 01D520, day 155) was 0.009 µg/mL. For the same compound, the “Plasma CAB concentration” value (macaque 01D520, day 162) was 0.009 µg/mL, the “Plasma CAB concentration” value (macaque 01D520, day 170) was 0.009 µg/mL and the “Plasma CAB concentration” value (macaque 01D520, day 176) was 0.009 µg/mL. The “Plasma CAB concentration” value (macaque 01D520, day 183) was 0.009 µg/mL, the “Plasma CAB concentration” value (macaque 01D520, day 190) was 0.009 µg/mL and the “Plasma CAB concentration” value (macaque 01D520, day 197) was 0.009 µg/mL. For the same compound, the “Plasma CAB concentration” value (macaque 01D520, day 204) was 0.009 µg/mL, the “Plasma CAB concentration” value (macaque 10D181, day 4) was 0.009 µg/mL and the “Plasma CAB concentration” value (macaque 10D181, day 11) was 0.009 µg/mL. For the same compound, the “Plasma CAB concentration” value (macaque 10D181, day 115) was 0.092 µg/mL, the “Plasma CAB concentration” value (macaque 10D181, day 120) was 0.063 µg/mL and the “Plasma CAB concentration” value (macaque 10D181, day 127) was 0.0297 µg/mL. The “Plasma CAB concentration” value (macaque 10D181, day 134) was 0.02 µg/mL, the “Plasma CAB concentration” value (macaque 10D181, day 143) was 0.01 µg/mL and the “Plasma CAB concentration” value (macaque 10D181, day 148) was 0.009 µg/mL. The “Plasma CAB concentration” value (macaque 10D181, day 155) was 0.009 µg/mL, the “Plasma CAB concentration” value (macaque 10D181, day 162) was 0.009 µg/mL and the “Plasma CAB concentration” value (macaque 10D181, day 170) was 0.009 µg/mL. For the same compound, the “Plasma CAB concentration” value (macaque 10D181, day 176) was 0.009 µg/mL, the “Plasma CAB concentration” value (macaque 10D181, day 183) was 0.009 µg/mL and the “Plasma CAB concentration” value (macaque 10D181, day 190) was 0.009 µg/mL. For the same compound, the “Plasma CAB concentration” value (macaque 10D181, day 197) was 0.009 µg/mL, the “Plasma CAB concentration” value (macaque 10D181, day 204) was 0.009 µg/mL and the “Plasma CAB concentration” value (macaque 33996, day 4) was 0.009 µg/mL. For the same compound, the “Plasma CAB concentration” value (macaque 33996, day 11) was 0.009 µg/mL, the “Plasma CAB concentration” value (macaque 33996, day 115) was 0.342 µg/mL and the “Plasma CAB concentration” value (macaque 33996, day 120) was 0.269 µg/mL. For the same compound, the “Plasma CAB concentration” value (macaque 33996, day 127) was 0.188 µg/mL, the “Plasma CAB concentration” value (macaque 33996, day 134) was 0.116 µg/mL and the “Plasma CAB concentration” value (macaque 33996, day 143) was 0.069 µg/mL. The “Plasma CAB concentration” value (macaque 33996, day 148) was 0.055 µg/mL, the “Plasma CAB concentration” value (macaque 33996, day 155) was 0.0376 µg/mL and the “Plasma CAB concentration” value (macaque 33996, day 162) was 0.024 µg/mL. For the same compound, the “Plasma CAB concentration” value (macaque 33996, day 170) was 0.015 µg/mL, the “Plasma CAB concentration” value (macaque 33996, day 176) was 0.011 µg/mL and the “Plasma CAB concentration” value (macaque 33996, day 183) was 0.009 µg/mL. For the same compound, the “Plasma CAB concentration” value (macaque 33996, day 190) was 0.009 µg/mL, the “Plasma CAB concentration” value (macaque 33996, day 197) was 0.009 µg/mL and the “Plasma CAB concentration” value (macaque 33996, day 204) was 0.009 µg/mL. The “Plasma CAB concentration” value (macaque 35451, day 4) was 0.009 µg/mL, the “Plasma CAB concentration” value (macaque 35451, day 11) was 0.009 µg/mL and the “Plasma CAB concentration” value (macaque 35451, day 115) was 1.08 µg/mL. For the same compound, the “Plasma CAB concentration” value (macaque 35451, day 120) was 0.77 µg/mL, the “Plasma CAB concentration” value (macaque 35451, day 127) was 0.566 µg/mL and the “Plasma CAB concentration” value (macaque 35451, day 134) was 0.463 µg/mL. The “Plasma CAB concentration” value (macaque 35451, day 143) was 0.366 µg/mL, the “Plasma CAB concentration” value (macaque 35451, day 148) was 0.319 µg/mL and the “Plasma CAB concentration” value (macaque 35451, day 155) was 0.221 µg/mL. For the same compound, the “Plasma CAB concentration” value (macaque 35451, day 162) was 0.234 µg/mL, the “Plasma CAB concentration” value (macaque 35451, day 170) was 0.147 µg/mL and the “Plasma CAB concentration” value (macaque 35451, day 176) was 0.124 µg/mL. For the same compound, the “Plasma CAB concentration” value (macaque 35451, day 183) was 0.089 µg/mL, the “Plasma CAB concentration” value (macaque 35451, day 190) was 0.072 µg/mL and the “Plasma CAB concentration” value (macaque 35451, day 197) was 0.052 µg/mL. For the same compound, the “Plasma CAB concentration” value (macaque 35451, day 204) was 0.046 µg/mL, the “Plasma CAB concentration” value (macaque CH54, day 4) was 0.009 µg/mL and the “Plasma CAB concentration” value (macaque CH54, day 11) was 0.009 µg/mL. For the same compound, the “Plasma CAB concentration” value (macaque CH54, day 115) was 0.413 µg/mL, the “Plasma CAB concentration” value (macaque CH54, day 120) was 0.244 µg/mL and the “Plasma CAB concentration” value (macaque CH54, day 127) was 0.135 µg/mL. For the same compound, the “Plasma CAB concentration” value (macaque CH54, day 134) was 0.0669 µg/mL, the “Plasma CAB concentration” value (macaque CH54, day 143) was 0.027 µg/mL and the “Plasma CAB concentration” value (macaque CH54, day 148) was 0.0162 µg/mL. The “Plasma CAB concentration” value (macaque CH54, day 155) was 0.009 µg/mL, the “Plasma CAB concentration” value (macaque CH54, day 162) was 0.009 µg/mL and the “Plasma CAB concentration” value (macaque CH54, day 170) was 0.009 µg/mL. The “Plasma CAB concentration” value (macaque CH54, day 176) was 0.009 µg/mL, the “Plasma CAB concentration” value (macaque CH54, day 183) was 0.009 µg/mL and the “Plasma CAB concentration” value (macaque CH54, day 190) was 0.009 µg/mL. The “Plasma CAB concentration” value (macaque CH54, day 197) was 0.009 µg/mL, the “Plasma CAB concentration” value (macaque CH54, day 204) was 0.009 µg/mL and the “Plasma CAB concentration” value (macaque CJ92, day 4) was 0.009 µg/mL. The “Plasma CAB concentration” value (macaque CJ92, day 11) was 0.009 µg/mL, the “Plasma CAB concentration” value (macaque CJ92, day 115) was 0.992 µg/mL and the “Plasma CAB concentration” value (macaque CJ92, day 120) was 0.738 µg/mL. The “Plasma CAB concentration” value (macaque CJ92, day 127) was 0.715 µg/mL, the “Plasma CAB concentration” value (macaque CJ92, day 134) was 0.631 µg/mL and the “Plasma CAB concentration” value (macaque CJ92, day 143) was 0.446 µg/mL. For the same compound, the “Plasma CAB concentration” value (macaque CJ92, day 148) was 0.361 µg/mL, the “Plasma CAB concentration” value (macaque CJ92, day 155) was 0.347 µg/mL and the “Plasma CAB concentration” value (macaque CJ92, day 162) was 0.307 µg/mL. The “Plasma CAB concentration” value (macaque CJ92, day 170) was 0.232 µg/mL, the “Plasma CAB concentration” value (macaque CJ92, day 176) was 0.151 µg/mL and the “Plasma CAB concentration” value (macaque CJ92, day 183) was 0.088 µg/mL. The “Plasma CAB concentration” value (macaque CJ92, day 190) was 0.07 µg/mL, the “Plasma CAB concentration” value (macaque CJ92, day 197) was 0.0499 µg/mL and the “Plasma CAB concentration” value (macaque CJ92, day 204) was 0.0404 µg/mL. For the same compound, the “Median CAB” value (day 4) was 0.009 µg/mL, the “Median CAB” value (day 11) was 0.009 µg/mL and the “Median CAB” value (day 115) was 0.3775 µg/mL. For the same compound, the “Median CAB” value (day 120) was 0.2565 µg/mL, the “Median CAB” value (day 127) was 0.1615 µg/mL and the “Median CAB” value (day 134) was 0.09145 µg/mL. For the same compound, the “Median CAB” value (day 143) was 0.048 µg/mL, the “Median CAB” value (day 148) was 0.0356 µg/mL and the “Median CAB” value (day 155) was 0.0233 µg/mL. The “Median CAB” value (day 162) was 0.0165 µg/mL, the “Median CAB” value (day 170) was 0.012 µg/mL and the “Median CAB” value (day 176) was 0.01 µg/mL. For the same compound, the “Median CAB” value (day 183) was 0.009 µg/mL, the “Median CAB” value (day 190) was 0.009 µg/mL and the “Median CAB” value (day 197) was 0.009 µg/mL. For the same compound, the “Median CAB” value (day 204) was 0.009 µg/mL.
